These are yes or no findings as the source states them, for the method shown. Binding seen in cells or lysates may run through a third protein. Here binding means that the protein was enriched with, or labelled near, the bait; the list need not be complete. Sequences can lack the tags named with a protein.
Molecular target: T1, GFP-tagged mLgl2 (UniProt Q3TJ91)
T1 sequence: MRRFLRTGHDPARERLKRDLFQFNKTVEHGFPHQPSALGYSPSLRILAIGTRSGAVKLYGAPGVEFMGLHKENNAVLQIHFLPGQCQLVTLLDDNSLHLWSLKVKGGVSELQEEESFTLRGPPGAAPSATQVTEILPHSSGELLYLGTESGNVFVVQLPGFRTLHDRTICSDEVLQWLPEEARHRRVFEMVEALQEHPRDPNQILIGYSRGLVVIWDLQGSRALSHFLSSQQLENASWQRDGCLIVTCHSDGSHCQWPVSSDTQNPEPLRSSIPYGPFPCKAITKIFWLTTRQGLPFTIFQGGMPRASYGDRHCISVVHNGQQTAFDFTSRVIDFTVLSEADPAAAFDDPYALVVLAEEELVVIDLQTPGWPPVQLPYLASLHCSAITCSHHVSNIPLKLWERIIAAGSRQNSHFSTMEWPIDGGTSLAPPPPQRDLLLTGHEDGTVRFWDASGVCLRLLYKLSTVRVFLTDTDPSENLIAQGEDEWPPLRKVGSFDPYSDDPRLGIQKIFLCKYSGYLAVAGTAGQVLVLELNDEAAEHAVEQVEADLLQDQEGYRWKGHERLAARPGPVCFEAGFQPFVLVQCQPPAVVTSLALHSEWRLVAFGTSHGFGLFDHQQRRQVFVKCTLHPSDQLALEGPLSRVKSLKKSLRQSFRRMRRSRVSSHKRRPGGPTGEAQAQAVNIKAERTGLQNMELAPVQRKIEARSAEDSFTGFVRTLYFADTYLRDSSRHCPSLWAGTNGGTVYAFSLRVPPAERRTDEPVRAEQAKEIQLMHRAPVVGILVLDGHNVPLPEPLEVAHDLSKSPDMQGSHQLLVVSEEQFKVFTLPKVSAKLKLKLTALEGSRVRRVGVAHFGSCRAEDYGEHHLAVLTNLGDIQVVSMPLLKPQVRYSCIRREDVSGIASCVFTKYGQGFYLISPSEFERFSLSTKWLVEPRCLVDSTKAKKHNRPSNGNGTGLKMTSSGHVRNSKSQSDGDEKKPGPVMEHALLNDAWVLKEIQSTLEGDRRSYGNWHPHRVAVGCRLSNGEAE
Test: affinity purification with mass spectrometry; lysates of parental or GFP-mLgl2-expressing MCF-7 cells, immunoprecipitation with control mouse IgG or anti-GFP antibody, SDS-PAGE and SYPRO Ruby staining; band excised, trypsin digest, LC-MS/MS

Amino acid sequences for entries named in this document (tags omitted).
UniProt Q9Y4B6: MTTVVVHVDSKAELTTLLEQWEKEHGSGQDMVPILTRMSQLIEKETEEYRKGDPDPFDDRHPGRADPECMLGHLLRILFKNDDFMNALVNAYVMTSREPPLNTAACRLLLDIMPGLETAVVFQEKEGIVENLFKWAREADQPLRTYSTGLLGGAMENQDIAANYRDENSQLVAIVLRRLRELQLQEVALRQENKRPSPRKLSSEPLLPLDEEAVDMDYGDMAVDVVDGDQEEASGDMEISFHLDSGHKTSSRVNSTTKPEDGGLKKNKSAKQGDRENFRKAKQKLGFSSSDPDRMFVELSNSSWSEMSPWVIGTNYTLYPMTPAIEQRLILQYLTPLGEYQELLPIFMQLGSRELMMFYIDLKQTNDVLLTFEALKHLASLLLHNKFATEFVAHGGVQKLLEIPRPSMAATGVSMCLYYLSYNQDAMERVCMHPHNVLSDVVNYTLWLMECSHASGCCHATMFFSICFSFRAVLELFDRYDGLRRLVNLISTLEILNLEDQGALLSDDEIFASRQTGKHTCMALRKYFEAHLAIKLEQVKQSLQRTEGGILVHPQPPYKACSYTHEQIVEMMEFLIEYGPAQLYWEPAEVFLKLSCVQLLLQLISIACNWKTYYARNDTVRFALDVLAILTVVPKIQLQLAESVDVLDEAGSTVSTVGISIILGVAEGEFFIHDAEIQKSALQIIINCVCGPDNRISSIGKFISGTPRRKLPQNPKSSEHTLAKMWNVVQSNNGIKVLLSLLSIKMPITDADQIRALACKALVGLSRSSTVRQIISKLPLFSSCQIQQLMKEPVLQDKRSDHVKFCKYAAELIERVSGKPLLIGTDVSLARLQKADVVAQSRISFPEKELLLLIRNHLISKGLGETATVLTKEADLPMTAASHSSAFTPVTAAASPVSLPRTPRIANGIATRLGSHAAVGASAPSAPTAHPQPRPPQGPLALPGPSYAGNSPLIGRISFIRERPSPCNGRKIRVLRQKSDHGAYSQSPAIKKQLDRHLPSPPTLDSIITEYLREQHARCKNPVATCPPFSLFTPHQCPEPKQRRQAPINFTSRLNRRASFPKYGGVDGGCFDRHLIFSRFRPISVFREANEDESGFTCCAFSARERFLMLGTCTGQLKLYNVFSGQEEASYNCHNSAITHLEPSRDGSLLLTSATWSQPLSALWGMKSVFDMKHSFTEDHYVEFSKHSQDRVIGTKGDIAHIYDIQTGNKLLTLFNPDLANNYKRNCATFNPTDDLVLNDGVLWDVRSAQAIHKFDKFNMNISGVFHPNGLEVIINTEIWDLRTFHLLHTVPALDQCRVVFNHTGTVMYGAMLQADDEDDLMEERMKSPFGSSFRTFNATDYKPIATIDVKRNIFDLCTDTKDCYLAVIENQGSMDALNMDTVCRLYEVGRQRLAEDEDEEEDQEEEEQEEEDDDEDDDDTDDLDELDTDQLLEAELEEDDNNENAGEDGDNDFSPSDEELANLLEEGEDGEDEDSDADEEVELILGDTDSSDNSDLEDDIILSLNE

**Q.** How did the binding turn out when “VprBP (viral protein R-binding protein), endogenous in MCF-7 cells (from UniProt Q9Y4B6 1-1507)” was run?
**A.** binds

From article PMC2903597
